Laboratory results taken from the supplement of paper PMC3047530.
± gives the standard deviation of the averaged measurements. The list shows a part of the results. Repeats are few or missing, and single values can be far off.

What follows are molecules tested on Geomyces destructans (assay: growth inhibition relative to DMSO control; higher = stronger growth inhibition). Settings: 10 µM; 15 °C; incubation time 10 days.

SMILES | growth inhibition [%]
COc1ccc(C2C(=O)c3ccccc3C2=O)cc1 | 5.28
Cc1cccc(C)c1NC(=O)C1CCCCN1C (stereo unspecified) | -26.6
COC(=O)C[C@H]1C(C)(C)C(=O)[C@@H]2CC3=C(CC[C@]4(C)C3=CC(=O)O[C@H]4c3ccoc3)[C@@]1(C)C2=O | -3.33
O=C(Nc1ccccc1)c1ccccc1O | 5.44
CCC(=O)OC1[C@@H]2CC3=C4CC(=O)O[C@@H](c5ccoc5)[C@]4(C)CCC3[C@@](C)(C2=O)[C@@H](CC(=O)OC)C1(C)C (stereo partly specified) | -2.7
CN(C)CCC=C1c2ccccc2CCc2ccccc21 | -28.2
NC(N)=NCCC[C@H](N[C@H](CCC(=O)O)C(=O)O)C(=O)O | -13.1
CS(=O)(=O)c1ccc(C2=C(c3ccccc3)C(=O)OC2)cc1 | -14.3
CCC/C=C1\OC(=O)C2=C1CCC=C2 | -1.21
COc1ccc2c(c1OC)OC[C@@H](c1ccc(OC)c(OC)c1OC)C2 | -16.6
COc1cc(Cc2cnc(N)nc2N)cc(OC)c1OC | -29.7
CCN(CC)CCOC(=O)C(c1ccccc1)C1CCCCC1 (stereo unspecified) | -1.27
C=CCc1ccc(OC(=O)c2ccccc2)c(OC)c1 | -7.04
CCCCC(CC)CN1CN(CC(CC)CCCC)CC(C)(N)C1 (stereo unspecified) | -32.2
COc1cccc2c1CCC1=CC(=O)CC[C@@]12C | 3.17
CC(=O)O[C@H]1CC[C@]2(C)C3C(=O)[C@@H](OC(C)=O)[C@@]4(C)C(C[C@@H]5O[C@]6(CCC(C)CO6)[C@@H](C)[C@@H]54)C3CC[C@H]2C1 (stereo partly specified) | -1.75
CO[C@@]1(NC(=O)Cc2cccs2)C(=O)N2C(C(=O)O)=C(COC(N)=O)CS[C@@H]21 | -5.74
CC[C@H](CC[C@@H](C)[C@H]1CC[C@H]2[C@@H]3CC=C4C[C@@H](O)CC[C@]4(C)[C@H]3CC[C@]12C)C(C)C [beta-SITOSTEROL] | 16.6
CCCN(CCC)C(=O)C(CCC(=O)O)NC(=O)c1ccccc1 (stereo unspecified) | -12.4
CN1CCC(=C2c3ccccc3CC(=O)c3sccc32)CC1 | -37.1
CC(=O)Oc1c(Cl)c(C)c2c(c1Cl)OC(=O)c1c(C)c(Cl)c(OC(C)=O)c(Cl)c1O2 | 2.03

SMILES | growth inhibition [%]
CC(=O)NCCc1c[nH]c2ccc(O)cc12 | -11.2
C[C@]12CCC3c4ccc(OC(=O)c5ccccc5)cc4CCC3C1CCC2=O (stereo partly specified) | 11
Cn1ccnc1S | 8.18
Nc1c(Br)cc(Br)cc1CN[C@H]1CC[C@H](O)CC1 | -7.82
Oc1ccc(Cl)c2cccnc12 | 88.7
COc1cc(-c2coc3cc(OC)c(OC)c(OC)c3c2=O)cc(OC)c1OC | 6.63
CC(C)(Sc1cc(C(C)(C)C)c(O)c(C(C)(C)C)c1)Sc1cc(C(C)(C)C)c(O)c(C(C)(C)C)c1 | -0.764
CN1CCCN=C1COC(=O)C(O)(c1ccccc1)C1CCCCC1 (stereo unspecified) | -13.8
CC(C)(Oc1ccc(Cl)cc1)C(=O)O | -6.04
COc1ccc(-c2c(O)c3c(OC)c4c(cc3oc2=O)OC(C)(C)C=C4)cc1 | 4.96
CC(=O)NO | -4.77
COc1cc(O)c2c(=O)c(O)c(-c3ccc(O)c(O)c3)oc2c1 | -9.59
CC(C)(S)[C@@H](N)C(=O)O | -17.4
CO[C@H]1C[C@H](O[C@H]2[C@H](C)[C@@H](O[C@@H]3O[C@H](C)C[C@H](N(C)C)[C@H]3OC(C)=O)[C@@H](C)C[C@@]3(CO3)C(=O)[C@H](C)[C@@H](OC(C)=O)[C@@H](C)[C@@H](C)OC(=O)[C@@H]2C)O[C@@H](C)[C@@H]1OC(C)=O | -4.57
COc1cc(C/C=C/c2ccccc2)c(OC)cc1O | 29.7
CC(=O)N[C@@H](CC(=O)O)C(=O)O | -31.7
O=C1O[C@H](CO)[C@@H](O)[C@H](O)[C@H]1O | -6.86
CC(=O)Oc1c(-c2ccccc2)oc2c(CC=C(C)C)c3c(c(OC(C)=O)c2c1=O)C=CC(C)(C)O3 | -4.96
CCCCCCCCCCC[C@@H](C[C@@H]1OC(=O)[C@H]1CCCCCC)OC(=O)[C@H](CC(C)C)NC=O | -29.7
COc1c(O)cc2c(-c3ccccc3)cc(=O)oc2c1OC | 4.01
C=C1C2CC[C@@]3(C)[C@H](c4ccoc4)OC(=O)C[C@]13O[C@H]1CC(O)C(C)(C)C(CC(=O)OC)[C@@]21C (stereo partly drawn) [3alpha-HYDROXY-3-DEOXYANGOLENSIC ACID METHYL ESTER] | -1.35 ± 14

SMILES | growth inhibition [%]
NC12CC3CC(CC(C3)C1)C2 | -8.4
Clc1ccc(COC(Cn2ccnc2)c2ccc(Cl)cc2Cl)c(Cl)c1 (stereo unspecified) | -15.2
Cc1cc(=O)n(-c2ccccc2)n1C | -13.2
N=C1C=CC(=C(c2ccc(N)cc2)c2ccc(N)cc2)C=C1 | 59.4
CC(=O)OC1CC[C@@]2(C)C(CC[C@H]3[C@@H]4CC=C(C(C)=O)[C@@]4(C)C(=O)C[C@@H]32)C1 (stereo partly specified) | -11.5
C=CC(C)(O)CCC1C(=C)CC(O)C2C(C)(C)CCCC12C (stereo unspecified) | -12.2
CC(=O)N(O)CCCCCNC(=O)CCC(=O)N(O)CCCCCNC(=O)CCC(=O)N(O)CCCCCN | -4.67
COC(=O)C[C@H]1C(C)(C)[C@@H](OC(C)=O)[C@]2(OC(C)=O)CC3=C4CC(=O)O[C@@H](c5ccoc5)[C@]4(C)CCC3[C@@]1(C)C2OC(C)=O (stereo partly specified) | -2.06
NCCCCNCCCN | -0.551
CN1CC(=O)NC1=N | 6.9
O=C1C=C2CC3(O)COc4c(ccc(O)c4O)C3=C2C=C1O (stereo unspecified) | -5.72
C[C@]12CC[C@@H]3c4ccc(O)cc4CC[C@H]3[C@@H]1CC[C@@H]2OC(=O)CCC1CCCC1 | 29
CCC(Cc1c(I)cc(I)c(N)c1I)C(=O)O (stereo unspecified) | -22.1
CN1CCc2cccc3c2[C@H]1Cc1ccc(O)c(O)c1-3 | -5.53
CCOC(=O)C(C)(C)Oc1ccc(Cl)cc1 | -9.44
CO[C@@]1(NC(=O)CSCC#N)C(=O)N2C(C(=O)O)=C(CSc3nnnn3C)CS[C@@H]21 | -9.89
C[C@@H]1[C@H](O)[C@@H](C)/C=C/C=C/C=C/C=C/C=C/C=C/C=C/[C@H](O[C@@H]2O[C@H](C)[C@@H](O)[C@H](N)[C@@H]2O)C[C@@H]2O[C@](O)(C[C@@H](O)C[C@@H](O)[C@H](O)CC[C@@H](O)C[C@@H](O)CC(=O)O[C@H]1C)C[C@H](O)[C@H]2C(=O)O | -1.04
N=C(N)N/N=C/c1c(Cl)cccc1Cl | 1.31
OC(CCN1CCCCC1)(c1ccccc1)C1CCCCC1 (stereo unspecified) | -19.4

Nothing new here: entries from further up.
SMILES | growth inhibition [%]
Clc1ccc(COC(Cn2ccnc2)c2ccc(Cl)cc2Cl)c(Cl)c1 (stereo unspecified) | -15.2
Cc1cc(=O)n(-c2ccccc2)n1C | -13.2
N=C1C=CC(=C(c2ccc(N)cc2)c2ccc(N)cc2)C=C1 | 59.4
CC(=O)OC1CC[C@@]2(C)C(CC[C@H]3[C@@H]4CC=C(C(C)=O)[C@@]4(C)C(=O)C[C@@H]32)C1 (stereo partly specified) | -11.5
C=CC(C)(O)CCC1C(=C)CC(O)C2C(C)(C)CCCC12C (stereo unspecified) | -12.2
CC(=O)N(O)CCCCCNC(=O)CCC(=O)N(O)CCCCCNC(=O)CCC(=O)N(O)CCCCCN | -4.67
COC(=O)C[C@H]1C(C)(C)[C@@H](OC(C)=O)[C@]2(OC(C)=O)CC3=C4CC(=O)O[C@@H](c5ccoc5)[C@]4(C)CCC3[C@@]1(C)C2OC(C)=O (stereo partly specified) | -2.06
NCCCCNCCCN | -0.551
CN1CC(=O)NC1=N | 6.9
O=C1C=C2CC3(O)COc4c(ccc(O)c4O)C3=C2C=C1O (stereo unspecified) | -5.72
C[C@]12CC[C@@H]3c4ccc(O)cc4CC[C@H]3[C@@H]1CC[C@@H]2OC(=O)CCC1CCCC1 | 29
CCC(Cc1c(I)cc(I)c(N)c1I)C(=O)O (stereo unspecified) | -22.1
CN1CCc2cccc3c2[C@H]1Cc1ccc(O)c(O)c1-3 | -5.53
CCOC(=O)C(C)(C)Oc1ccc(Cl)cc1 | -9.44
CO[C@@]1(NC(=O)CSCC#N)C(=O)N2C(C(=O)O)=C(CSc3nnnn3C)CS[C@@H]21 | -9.89
C[C@@H]1[C@H](O)[C@@H](C)/C=C/C=C/C=C/C=C/C=C/C=C/C=C/[C@H](O[C@@H]2O[C@H](C)[C@@H](O)[C@H](N)[C@@H]2O)C[C@@H]2O[C@](O)(C[C@@H](O)C[C@@H](O)[C@H](O)CC[C@@H](O)C[C@@H](O)CC(=O)O[C@H]1C)C[C@H](O)[C@H]2C(=O)O | -1.04
N=C(N)N/N=C/c1c(Cl)cccc1Cl | 1.31
OC(CCN1CCCCC1)(c1ccccc1)C1CCCCC1 (stereo unspecified) | -19.4
